{"source": "patent US8697839B2", "about": "“GQ protein competitive inhibitory polypeptides, preparation methods and uses thereof” (Third Military Medical University, priority 2008, dated 2014)", "origin": "cited, not measured here", "details": "clinical dosage converted into the dosage in the mouse; cited from earlier work"}
{"smiles": "COC(=O)C1=C(C)NC(C)=C(C(=O)OC)C1c1ccccc1[N+](=O)[O-]", "note": "[nifedipine]", "values": [{"measurement": "ratio of mouse LD50/routine dosage", "value": 157}]}
